Test results: publication PMC11468353
These are yes or no findings as the source states them, for the method shown. In cells and extracts the contact can be indirect. Some entries that bind do so weakly or less than the wild type.

Chains of the proteins cited; added tags and fusions are not shown.
UniProt Q8K1M6: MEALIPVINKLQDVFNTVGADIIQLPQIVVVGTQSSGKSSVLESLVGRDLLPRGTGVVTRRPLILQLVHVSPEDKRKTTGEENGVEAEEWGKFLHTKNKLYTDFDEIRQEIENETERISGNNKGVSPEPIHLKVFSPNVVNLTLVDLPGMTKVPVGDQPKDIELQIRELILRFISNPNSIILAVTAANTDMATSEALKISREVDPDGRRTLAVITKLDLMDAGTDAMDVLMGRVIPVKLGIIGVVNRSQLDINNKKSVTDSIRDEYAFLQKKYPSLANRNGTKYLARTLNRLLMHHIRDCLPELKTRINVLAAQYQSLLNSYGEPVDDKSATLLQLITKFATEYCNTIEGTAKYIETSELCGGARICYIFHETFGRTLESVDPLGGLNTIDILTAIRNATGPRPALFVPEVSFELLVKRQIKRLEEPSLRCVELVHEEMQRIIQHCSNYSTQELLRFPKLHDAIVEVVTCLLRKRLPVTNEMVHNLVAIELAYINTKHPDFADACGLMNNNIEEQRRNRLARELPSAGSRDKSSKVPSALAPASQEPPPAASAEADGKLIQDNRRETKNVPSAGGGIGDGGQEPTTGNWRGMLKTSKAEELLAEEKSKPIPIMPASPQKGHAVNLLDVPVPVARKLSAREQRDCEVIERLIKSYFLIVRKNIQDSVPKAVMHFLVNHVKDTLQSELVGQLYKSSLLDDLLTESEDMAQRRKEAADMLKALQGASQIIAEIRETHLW

B1: General control of amino acid synthesis 5 (GCN5) like-1 (GCN5L1) (protein, UniProt O55102 1-125)
chain: MLSRLLKEHQAKQNERKELQEKRRREAIAAATCLTEALVDHLNVGVAQAYMNQRKLDHEVKTLQVQAAQFAKQTGQWIGMVENFNQALKEIGDVENWARSIELDMRTIATALEYVYKGQLQSAPS

Experiments:
[1] = target: T1, General control of amino acid synthesis 5 (GCN5) like-1 (GCN5L1) (mouse (endogenous in Neuro-2a cells and C57BL/6J brain tissue)) (UniProt O55102); test: co-IP; endogenous proteins in Neuro-2a cell lysate; antibody (anti-Drp1 or anti-GCN5L1) on Protein A/G magnetic beads, western blot of the partner; cells treated with OGD for different times (up to 4 h), with or without Compound C (5 µM, AMPK inhibitor)
T1 sequence: B1 chain

[2] = target: T1, General control of amino acid synthesis 5 (GCN5) like-1 (GCN5L1) (mouse (endogenous in Neuro-2a cells and C57BL/6J brain tissue)); test: co-IP; endogenous proteins in brain tissues of dMCAO (3 days) and control (sham) mice; IP with anti-GCN5L1 or anti-Drp1, western blot of the partner
[3] = target: dynamin-related protein 1 (Drp1) (mouse (endogenous in Neuro-2a cells and C57BL/6J brain tissue)) (UniProt Q8K1M6); test: co-IP; endogenous proteins in Neuro-2a cell lysate; antibody (anti-Drp1 or anti-GCN5L1) on Protein A/G magnetic beads, western blot of the partner; cells treated with OGD for different times (up to 4 h), with or without Compound C (5 µM, AMPK inhibitor)
[4] = target: dynamin-related protein 1 (Drp1) (mouse (endogenous in Neuro-2a cells and C57BL/6J brain tissue)) (UniProt Q8K1M6); test: co-IP; endogenous proteins in brain tissues of dMCAO (3 days) and control (sham) mice; IP with anti-GCN5L1 or anti-Drp1, western blot of the partner

Molecule | binding [1] | binding [2] | binding [3] | binding [4]
dynamin-related protein 1 (Drp1) (from UniProt Q8K1M6 1-736) | binds | binds |  | 
B1 |  |  | binds | binds
